Test results: article PMC10418930
No constants are given. Whether binding was seen depends on the method and setting. Binding seen in cells or lysates may run through a third protein. Some binding calls cover weakened binding; strength is not graded here. Sequences can lack the tags named with a protein.

Protein sequences, listed by entry. Tags and fused reporters are not part of them. Residues count along the entry.
UniProt Q01974, residues 34-943: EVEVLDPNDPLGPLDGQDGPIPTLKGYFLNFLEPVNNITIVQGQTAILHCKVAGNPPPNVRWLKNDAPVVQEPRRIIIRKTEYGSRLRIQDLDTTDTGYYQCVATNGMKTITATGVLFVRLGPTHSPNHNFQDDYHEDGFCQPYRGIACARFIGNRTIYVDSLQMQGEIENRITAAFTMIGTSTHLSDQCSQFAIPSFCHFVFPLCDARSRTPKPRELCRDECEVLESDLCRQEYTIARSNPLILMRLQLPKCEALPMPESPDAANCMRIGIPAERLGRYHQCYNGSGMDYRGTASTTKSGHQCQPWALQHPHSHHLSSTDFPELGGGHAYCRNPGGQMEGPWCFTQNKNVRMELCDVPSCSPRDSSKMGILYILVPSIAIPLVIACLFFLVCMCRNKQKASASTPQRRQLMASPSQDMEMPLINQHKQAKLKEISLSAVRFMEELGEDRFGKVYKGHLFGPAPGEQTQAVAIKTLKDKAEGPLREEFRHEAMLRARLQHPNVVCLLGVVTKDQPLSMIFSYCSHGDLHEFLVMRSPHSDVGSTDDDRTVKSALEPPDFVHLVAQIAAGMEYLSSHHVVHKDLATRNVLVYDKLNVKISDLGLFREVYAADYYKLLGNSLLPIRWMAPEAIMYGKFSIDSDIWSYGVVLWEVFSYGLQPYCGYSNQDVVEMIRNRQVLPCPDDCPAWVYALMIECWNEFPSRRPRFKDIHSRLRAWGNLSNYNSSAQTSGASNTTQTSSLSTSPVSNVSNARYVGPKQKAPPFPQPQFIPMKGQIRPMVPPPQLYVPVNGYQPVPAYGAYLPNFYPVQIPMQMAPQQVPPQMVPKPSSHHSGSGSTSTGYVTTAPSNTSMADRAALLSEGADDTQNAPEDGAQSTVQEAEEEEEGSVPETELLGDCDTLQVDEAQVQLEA
UniProt P11362, residues 22-822: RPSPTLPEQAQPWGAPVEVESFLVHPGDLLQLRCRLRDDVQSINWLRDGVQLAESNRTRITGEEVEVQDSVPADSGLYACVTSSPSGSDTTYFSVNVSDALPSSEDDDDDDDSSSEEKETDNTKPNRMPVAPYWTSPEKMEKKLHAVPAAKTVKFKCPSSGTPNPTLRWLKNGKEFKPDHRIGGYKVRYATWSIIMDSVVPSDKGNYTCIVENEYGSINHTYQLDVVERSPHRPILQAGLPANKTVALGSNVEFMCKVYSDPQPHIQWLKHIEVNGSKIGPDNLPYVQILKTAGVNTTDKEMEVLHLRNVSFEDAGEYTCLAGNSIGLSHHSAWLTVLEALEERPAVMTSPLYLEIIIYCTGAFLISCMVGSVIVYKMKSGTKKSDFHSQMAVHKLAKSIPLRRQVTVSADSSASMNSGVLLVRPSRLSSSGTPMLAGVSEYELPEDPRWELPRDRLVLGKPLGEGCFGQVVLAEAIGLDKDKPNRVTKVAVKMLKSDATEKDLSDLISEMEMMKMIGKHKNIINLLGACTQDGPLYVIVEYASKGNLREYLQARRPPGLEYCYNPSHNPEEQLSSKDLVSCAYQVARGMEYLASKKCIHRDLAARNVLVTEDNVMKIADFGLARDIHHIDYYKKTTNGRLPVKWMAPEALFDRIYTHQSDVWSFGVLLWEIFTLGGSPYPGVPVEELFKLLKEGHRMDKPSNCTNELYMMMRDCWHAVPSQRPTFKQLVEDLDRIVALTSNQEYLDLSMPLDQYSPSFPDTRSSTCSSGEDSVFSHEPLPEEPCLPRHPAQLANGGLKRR

Target: T1, PTK7-FLAG (human protein tyrosine kinase 7 with a C-terminal FLAG-tag) (human) (UniProt Q13308)
T1 sequence: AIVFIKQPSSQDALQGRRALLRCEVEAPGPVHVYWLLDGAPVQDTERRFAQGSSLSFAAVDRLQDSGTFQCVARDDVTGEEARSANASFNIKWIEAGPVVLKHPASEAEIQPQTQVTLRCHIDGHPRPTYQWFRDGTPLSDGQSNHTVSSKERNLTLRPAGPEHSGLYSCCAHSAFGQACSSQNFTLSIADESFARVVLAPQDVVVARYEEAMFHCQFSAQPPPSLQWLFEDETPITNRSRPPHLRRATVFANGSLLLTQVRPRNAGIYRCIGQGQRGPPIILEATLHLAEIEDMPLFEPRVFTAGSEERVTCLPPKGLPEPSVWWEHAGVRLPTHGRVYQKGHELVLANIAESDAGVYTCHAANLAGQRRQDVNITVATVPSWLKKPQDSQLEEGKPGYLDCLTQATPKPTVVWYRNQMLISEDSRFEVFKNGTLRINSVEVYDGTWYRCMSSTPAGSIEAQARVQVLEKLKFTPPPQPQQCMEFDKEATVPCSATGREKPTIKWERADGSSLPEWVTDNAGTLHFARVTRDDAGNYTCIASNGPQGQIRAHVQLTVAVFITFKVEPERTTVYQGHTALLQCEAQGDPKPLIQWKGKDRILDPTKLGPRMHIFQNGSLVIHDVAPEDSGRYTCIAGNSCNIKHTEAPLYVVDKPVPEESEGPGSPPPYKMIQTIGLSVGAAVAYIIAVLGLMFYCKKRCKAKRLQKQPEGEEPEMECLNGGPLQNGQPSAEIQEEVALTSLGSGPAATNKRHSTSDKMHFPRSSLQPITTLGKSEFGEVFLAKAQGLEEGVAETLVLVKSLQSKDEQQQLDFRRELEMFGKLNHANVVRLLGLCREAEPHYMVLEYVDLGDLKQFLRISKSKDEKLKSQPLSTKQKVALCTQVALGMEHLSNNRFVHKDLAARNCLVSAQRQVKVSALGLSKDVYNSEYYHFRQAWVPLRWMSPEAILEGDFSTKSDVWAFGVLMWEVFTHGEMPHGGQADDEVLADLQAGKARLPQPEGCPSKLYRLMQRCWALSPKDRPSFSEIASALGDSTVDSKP
Test: co-IP; HEK293 cells co-expressing PTK7-FLAG and FGFR1-HA, EGFR-HA or ROR2-HA; NP-40 lysis buffer (50 mM Tris-HCl pH 7.4, 150 mM NaCl, 1% NP-40); lysates incubated with mouse anti-FLAG M2-agarose for 2 h, washed, Western blot for HA; called a pull-down by the paper

Substance	binding
ROR2-HA (full-length human ROR2 with a C-terminal HA-tag) (from UniProt Q01974 34-943) (receptor)	binds
FGFR1-HA (human fibroblast growth factor receptor 1 with a C-terminal HA-tag) (from UniProt P11362 22-822)	binds
